Source: patent publication US20170281807A1
These are yes or no findings as the source states them, for the method shown. A result given as binding can be weak or reduced; the word gives no strength.

Tests used:
[1] = target: murine AA amyloid in tissues of AA mice (mouse); assay: microautoradiography, SPECT/CT and biodistribution of 125I-p66 in AA mice
[2] = target: murine AA amyloid in tissues of AA mice (mouse); assay: immunohistochemistry with biotinylated clone 12-3 on tissues of AA mice given p66
[3] = target: murine AA amyloid in tissues of AA mice (mouse); assay: microautoradiography and immunohistochemistry, AA mice pre-targeted with p66, 24 h after 125I-11-1F4
[4] = target: murine AA amyloid in tissues of AA mice (mouse); assay: microautoradiography of 125I-p66 in AA mice, Congo red on consecutive sections
[5] = target: murine AA amyloid in tissues of AA mice (mouse); assay: pull-down of 125I-labeled peptide, 0.15 M or 1.0 M NaCl; mAA liver homogenate
[6] = target: murine AA amyloid in tissues of AA mice (mouse); assay: immunohistochemistry with biotinylated clone 12-3 on tissues of AA mice given p5+14

Measured: binding

B1: peptide p66 (11-1F4 peptope) (peptide)
peptide: KAQKAQAKQAKQAQKAQKAQAKQAKQAQKAQKAQAKQAKQSVTVVTKHYAAFPENLLI
binds: [1] | [2] | [3] | [4] | [5]

B2: peptide p5+14 (peptide)
peptide: KAQKAQAKQAKQAQKAQKAQAKQAKQAQKAQKAQAKQAKQ
binds: [6] | [5]
